Some of the results follow.
Experiments:
Experiment in all cases: log2 fold change, soluble protein after heating vs DMSO (PISA); higher = thermal stabilisation; K562 cells, 10 uM, 30 min; active = over 0.2 and 3.5 SD of the protein, either way, in both replicates (recomputed)
[1] = compound: C1=CC=C(C=C1)[C@H](COC2=CC3=C(C=C2)NC(=O)N3)NC(=O)C4=CC=CN(C4=O)CC5=CC(=C(C=C5)F)F
Procedure, shortened: (§1)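 Values are thermal stability changes relative to control samples and are taken from duplicates. They are stated as log2 fold changes. Before quantification by TMTpro 16plex LC-MS/MS with equalised channel sums, K562 cells at 2×10^6 cells/mL were treated with 10 μM compound for 30 min, heated in aliquots for 3 min across 48°C-58°C, pooled, extracted in PBS with 0.5% NP-40 at 4°C, and centrifuged at 21,000xg for 90 min to give the soluble supernatant.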

Chains of the proteins cited; added tags and fusions are not shown. Lines headed by an entry give the natural chain unless they say otherwise; changes in a name come on top.
UniProt O95810: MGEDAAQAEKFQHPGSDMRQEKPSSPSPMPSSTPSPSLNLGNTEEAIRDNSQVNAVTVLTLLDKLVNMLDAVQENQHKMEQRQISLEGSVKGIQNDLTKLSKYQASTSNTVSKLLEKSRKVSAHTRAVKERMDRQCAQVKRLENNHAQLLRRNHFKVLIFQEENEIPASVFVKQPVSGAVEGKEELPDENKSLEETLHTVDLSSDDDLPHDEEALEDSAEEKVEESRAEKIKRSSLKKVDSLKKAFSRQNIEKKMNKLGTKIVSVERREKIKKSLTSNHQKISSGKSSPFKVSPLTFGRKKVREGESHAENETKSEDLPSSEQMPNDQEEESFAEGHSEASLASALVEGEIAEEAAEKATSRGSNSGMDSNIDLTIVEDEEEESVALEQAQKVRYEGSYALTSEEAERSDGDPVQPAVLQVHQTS
UniProt P14209: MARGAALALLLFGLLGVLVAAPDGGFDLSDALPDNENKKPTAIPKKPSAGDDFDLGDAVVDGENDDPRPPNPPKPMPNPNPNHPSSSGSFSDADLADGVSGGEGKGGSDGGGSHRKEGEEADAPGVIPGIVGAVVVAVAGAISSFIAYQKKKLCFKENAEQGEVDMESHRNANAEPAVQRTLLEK
UniProt Q7Z6B0: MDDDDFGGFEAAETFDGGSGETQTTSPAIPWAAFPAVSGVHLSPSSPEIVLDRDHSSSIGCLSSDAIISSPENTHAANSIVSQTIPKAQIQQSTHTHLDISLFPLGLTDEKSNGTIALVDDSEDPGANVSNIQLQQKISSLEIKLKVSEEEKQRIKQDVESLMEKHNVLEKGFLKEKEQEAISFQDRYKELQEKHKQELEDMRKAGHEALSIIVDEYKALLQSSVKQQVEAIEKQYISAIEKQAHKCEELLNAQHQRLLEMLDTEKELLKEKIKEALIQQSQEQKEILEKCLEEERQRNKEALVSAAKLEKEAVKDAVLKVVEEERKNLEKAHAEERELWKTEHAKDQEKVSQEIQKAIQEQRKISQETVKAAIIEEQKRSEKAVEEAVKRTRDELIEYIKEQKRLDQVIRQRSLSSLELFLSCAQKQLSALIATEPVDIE
UniProt O95273: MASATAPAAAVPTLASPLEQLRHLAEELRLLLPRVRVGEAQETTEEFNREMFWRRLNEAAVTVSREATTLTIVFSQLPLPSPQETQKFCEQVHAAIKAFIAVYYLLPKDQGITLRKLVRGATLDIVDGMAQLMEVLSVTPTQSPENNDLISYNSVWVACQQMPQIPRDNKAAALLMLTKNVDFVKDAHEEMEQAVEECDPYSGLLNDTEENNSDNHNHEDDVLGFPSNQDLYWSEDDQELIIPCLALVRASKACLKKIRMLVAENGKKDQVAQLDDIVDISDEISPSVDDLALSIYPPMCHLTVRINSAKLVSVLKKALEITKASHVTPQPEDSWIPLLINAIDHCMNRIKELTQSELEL
UniProt Q8N350: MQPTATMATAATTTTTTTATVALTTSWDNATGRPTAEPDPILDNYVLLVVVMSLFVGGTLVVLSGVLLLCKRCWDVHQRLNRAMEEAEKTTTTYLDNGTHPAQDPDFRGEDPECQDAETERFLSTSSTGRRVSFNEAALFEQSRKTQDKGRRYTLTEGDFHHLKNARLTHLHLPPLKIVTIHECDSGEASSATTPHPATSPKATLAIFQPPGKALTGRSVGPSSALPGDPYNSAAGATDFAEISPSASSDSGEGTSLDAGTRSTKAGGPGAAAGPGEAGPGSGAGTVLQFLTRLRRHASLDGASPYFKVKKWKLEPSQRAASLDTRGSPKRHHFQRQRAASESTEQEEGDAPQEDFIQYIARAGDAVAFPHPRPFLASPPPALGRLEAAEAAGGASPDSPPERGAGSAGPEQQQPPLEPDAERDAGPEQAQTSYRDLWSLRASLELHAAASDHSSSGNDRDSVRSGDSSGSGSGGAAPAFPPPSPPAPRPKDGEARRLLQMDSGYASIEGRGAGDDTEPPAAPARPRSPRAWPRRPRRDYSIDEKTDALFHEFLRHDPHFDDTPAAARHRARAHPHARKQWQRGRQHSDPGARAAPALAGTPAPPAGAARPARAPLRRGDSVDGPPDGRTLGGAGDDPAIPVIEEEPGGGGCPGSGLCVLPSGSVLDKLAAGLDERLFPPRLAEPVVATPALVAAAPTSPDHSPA
UniProt Q13951, whole entry, looked up: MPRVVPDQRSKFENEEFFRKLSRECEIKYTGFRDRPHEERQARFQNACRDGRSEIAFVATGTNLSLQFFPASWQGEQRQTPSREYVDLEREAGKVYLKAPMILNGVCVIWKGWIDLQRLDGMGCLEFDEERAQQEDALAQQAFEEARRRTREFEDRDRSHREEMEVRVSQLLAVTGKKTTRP
UniProt Q15834: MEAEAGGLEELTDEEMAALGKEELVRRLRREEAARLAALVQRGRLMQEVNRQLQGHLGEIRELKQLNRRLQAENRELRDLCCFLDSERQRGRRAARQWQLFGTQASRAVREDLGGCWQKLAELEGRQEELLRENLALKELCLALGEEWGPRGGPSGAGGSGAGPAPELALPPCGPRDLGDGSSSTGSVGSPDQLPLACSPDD
UniProt Q8NHZ8, whole entry, looked up: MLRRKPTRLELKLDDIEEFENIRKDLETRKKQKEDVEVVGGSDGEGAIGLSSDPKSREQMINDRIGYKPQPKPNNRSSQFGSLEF
UniProt P83916, whole entry, looked up: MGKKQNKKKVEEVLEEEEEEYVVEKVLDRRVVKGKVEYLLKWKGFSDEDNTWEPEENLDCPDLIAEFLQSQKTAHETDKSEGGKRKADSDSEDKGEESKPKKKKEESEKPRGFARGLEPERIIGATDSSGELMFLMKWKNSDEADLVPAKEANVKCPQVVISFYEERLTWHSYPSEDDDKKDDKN
UniProt Q92851: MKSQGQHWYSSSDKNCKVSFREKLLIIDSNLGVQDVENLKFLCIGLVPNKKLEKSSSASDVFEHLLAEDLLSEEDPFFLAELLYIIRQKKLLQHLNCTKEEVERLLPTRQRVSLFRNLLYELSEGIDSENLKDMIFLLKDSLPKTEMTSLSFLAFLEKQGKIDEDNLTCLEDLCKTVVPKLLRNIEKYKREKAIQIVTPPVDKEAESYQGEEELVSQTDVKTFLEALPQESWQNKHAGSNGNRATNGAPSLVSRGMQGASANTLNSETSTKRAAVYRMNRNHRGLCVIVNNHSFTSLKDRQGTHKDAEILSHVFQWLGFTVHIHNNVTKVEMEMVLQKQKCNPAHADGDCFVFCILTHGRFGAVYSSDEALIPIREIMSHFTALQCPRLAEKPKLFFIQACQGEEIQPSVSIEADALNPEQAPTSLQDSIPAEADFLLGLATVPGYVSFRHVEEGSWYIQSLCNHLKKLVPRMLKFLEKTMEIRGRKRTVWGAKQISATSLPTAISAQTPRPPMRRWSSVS
UniProt Q6NZI2: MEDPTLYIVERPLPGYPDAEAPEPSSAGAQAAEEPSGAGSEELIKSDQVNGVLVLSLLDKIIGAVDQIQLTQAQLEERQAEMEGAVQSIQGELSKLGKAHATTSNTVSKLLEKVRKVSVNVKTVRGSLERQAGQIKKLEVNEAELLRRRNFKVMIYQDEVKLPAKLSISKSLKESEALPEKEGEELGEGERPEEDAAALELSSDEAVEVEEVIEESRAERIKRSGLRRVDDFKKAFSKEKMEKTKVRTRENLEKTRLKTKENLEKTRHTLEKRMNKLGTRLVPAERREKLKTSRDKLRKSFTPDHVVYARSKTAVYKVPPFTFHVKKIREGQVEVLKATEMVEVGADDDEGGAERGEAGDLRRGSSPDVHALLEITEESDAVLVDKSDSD
UniProt Q7Z3E2: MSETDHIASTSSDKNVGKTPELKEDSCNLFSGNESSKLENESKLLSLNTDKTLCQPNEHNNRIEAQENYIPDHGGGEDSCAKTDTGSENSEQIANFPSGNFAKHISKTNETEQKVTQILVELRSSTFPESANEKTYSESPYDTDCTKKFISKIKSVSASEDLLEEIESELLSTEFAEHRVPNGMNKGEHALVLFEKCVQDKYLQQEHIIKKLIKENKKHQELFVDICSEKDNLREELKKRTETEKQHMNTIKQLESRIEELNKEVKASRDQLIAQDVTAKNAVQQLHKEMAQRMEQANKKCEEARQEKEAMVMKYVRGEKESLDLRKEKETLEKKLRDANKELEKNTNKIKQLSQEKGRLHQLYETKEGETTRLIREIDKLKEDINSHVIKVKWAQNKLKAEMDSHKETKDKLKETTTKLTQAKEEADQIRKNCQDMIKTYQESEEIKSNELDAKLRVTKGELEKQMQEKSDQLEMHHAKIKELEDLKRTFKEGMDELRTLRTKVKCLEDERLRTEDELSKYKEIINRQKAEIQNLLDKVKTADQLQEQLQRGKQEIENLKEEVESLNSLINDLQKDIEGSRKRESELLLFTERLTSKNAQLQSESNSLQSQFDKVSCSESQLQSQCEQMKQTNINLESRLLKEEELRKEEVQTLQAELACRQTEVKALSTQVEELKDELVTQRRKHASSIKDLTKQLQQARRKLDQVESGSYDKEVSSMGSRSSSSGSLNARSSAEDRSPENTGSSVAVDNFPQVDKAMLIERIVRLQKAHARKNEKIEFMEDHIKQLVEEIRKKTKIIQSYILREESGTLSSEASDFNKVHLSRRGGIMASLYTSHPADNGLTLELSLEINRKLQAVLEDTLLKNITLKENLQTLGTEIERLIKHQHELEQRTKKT
UniProt P21926: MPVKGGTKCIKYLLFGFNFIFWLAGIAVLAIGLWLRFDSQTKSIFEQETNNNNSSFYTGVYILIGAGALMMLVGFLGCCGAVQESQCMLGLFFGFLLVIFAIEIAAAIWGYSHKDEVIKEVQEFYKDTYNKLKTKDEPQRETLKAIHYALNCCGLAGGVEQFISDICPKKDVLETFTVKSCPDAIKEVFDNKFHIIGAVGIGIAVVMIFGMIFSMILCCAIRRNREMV
UniProt P51636: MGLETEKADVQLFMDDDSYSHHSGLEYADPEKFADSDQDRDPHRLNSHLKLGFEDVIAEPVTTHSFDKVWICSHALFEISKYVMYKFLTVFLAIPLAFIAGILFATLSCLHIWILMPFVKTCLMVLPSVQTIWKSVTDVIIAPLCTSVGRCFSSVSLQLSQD
UniProt Q9NPF0: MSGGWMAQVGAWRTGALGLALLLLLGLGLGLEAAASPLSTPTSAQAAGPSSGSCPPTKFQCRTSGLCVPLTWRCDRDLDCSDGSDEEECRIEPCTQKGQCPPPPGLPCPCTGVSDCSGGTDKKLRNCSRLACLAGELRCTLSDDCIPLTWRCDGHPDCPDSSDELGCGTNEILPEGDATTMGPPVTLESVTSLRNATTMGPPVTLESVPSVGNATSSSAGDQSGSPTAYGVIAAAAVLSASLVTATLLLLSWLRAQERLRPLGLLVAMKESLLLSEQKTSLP
UniProt Q96A19: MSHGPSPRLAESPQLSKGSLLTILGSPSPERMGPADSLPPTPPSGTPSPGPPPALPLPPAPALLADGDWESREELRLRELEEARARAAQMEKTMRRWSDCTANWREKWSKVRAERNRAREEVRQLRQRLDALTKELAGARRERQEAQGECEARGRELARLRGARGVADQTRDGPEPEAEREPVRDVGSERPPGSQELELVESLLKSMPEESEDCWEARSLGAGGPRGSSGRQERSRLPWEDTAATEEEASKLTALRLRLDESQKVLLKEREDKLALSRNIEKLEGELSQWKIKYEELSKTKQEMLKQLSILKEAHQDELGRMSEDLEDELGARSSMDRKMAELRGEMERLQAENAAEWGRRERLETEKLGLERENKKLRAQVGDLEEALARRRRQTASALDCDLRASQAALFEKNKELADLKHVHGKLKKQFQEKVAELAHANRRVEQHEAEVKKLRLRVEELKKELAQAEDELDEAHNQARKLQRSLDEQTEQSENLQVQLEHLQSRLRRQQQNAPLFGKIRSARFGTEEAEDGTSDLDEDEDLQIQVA
UniProt Q9BUN5: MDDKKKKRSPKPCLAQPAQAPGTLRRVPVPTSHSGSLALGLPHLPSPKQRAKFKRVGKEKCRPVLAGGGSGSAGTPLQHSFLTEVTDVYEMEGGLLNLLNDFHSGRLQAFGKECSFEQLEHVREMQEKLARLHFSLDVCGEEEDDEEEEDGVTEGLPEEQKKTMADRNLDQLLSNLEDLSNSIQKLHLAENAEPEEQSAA
UniProt Q9P0B6: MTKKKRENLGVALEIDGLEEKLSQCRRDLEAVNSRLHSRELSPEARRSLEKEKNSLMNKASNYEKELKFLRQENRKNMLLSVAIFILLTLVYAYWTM
UniProt Q07108: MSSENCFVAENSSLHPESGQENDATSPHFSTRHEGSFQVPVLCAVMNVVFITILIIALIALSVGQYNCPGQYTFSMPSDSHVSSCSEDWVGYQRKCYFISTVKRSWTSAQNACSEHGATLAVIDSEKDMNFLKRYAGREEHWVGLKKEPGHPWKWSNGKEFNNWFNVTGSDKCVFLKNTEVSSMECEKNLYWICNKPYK
UniProt P11049: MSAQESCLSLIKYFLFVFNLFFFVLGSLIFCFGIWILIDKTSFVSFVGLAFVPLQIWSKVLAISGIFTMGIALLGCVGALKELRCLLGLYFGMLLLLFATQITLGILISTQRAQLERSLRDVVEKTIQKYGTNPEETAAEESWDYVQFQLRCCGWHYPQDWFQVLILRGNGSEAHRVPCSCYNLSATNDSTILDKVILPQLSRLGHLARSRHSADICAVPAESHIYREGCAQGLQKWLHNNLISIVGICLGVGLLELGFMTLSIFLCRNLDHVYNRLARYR

[2] = compound: CC1=C(SC2=C1C(=N[C@H](C3=NN=C(N32)C)CC(=O)N)C4=CC=C(C=C4)Cl)C
Procedure, shortened: as §1

[3] = compound: CC1=C2C(=CC=C1)N=C(N(C2=O)C3=CC=CC=C3C)CN4C=NC5=C(N=CN=C54)N
Procedure, shortened: as §1

[4] = compound: Cc1sc2c(c1C)C(c1ccc(Cl)cc1)=N[C@@H](CC(=O)OC(C)(C)C)c1nnc(C)n1-2
Procedure, shortened: as §1

[5] = compound: c1ccc([C@@H]2C[C@H]2NC2CCNCC2)cc1
Procedure, shortened: as §1

Measured: log2 fold change

CAVIN2 (UniProt O95810)
inactive: [1] 0.031 | [2] -0.112 | [3] -0.028 | [4] 0.071 | [5] 0.02

CCT6A (UniProt P40227)
inactive: [1] 0.007 | [2] -0.013 | [3] -0.011 | [4] -0.031 | [5] 0.002

CCM2 isoform 2 (UniProt Q9BSQ5)
inactive: [1] 0.013 | [2] 0.144 | [3] 0.046 | [4] -0.161 | [5] -0.046

CARM1 (UniProt Q86X55)
inactive: [1] 0.01 | [2] 0.018 | [3] 0.028 | [4] -0.009 | [5] 0.007

CBFA2T3 (UniProt O75081)
inactive: [1] -0.031 | [2] 0.011 | [3] 0.03 | [4] -0.003 | [5] 0.099

CD99 (UniProt P14209)
inactive: [1] 0.019 | [2] -0.102 | [3] 0.028 | [4] -0.115 | [5] 0.004

CBS (UniProt P35520)
inactive: [1] -0.029 | [2] 0.07 | [3] 0.016 | [4] -0.014 | [5] -0.026

CCDC91 (UniProt Q7Z6B0)
inactive: [1] -0.007 | [2] 0.012 | [3] 0.004 | [4] 0.01 | [5] 0.008

CCNDBP1 (UniProt O95273)
inactive: [1] 0.023 | [2] -0.118 | [3] 0.182 | [4] 0.007 | [5] 0.047

CARNMT1 (UniProt Q8N4J0)
inactive: [1] -0.088 | [2] 0.144 | [3] 0.068 | [4] 0.035 | [5] -0.081

CCT5 (UniProt P48643)
inactive: [1] -0.033 | [2] -0.018 | [3] -0.035 | [4] -0.023 | [5] -0.006

CBARP (UniProt Q8N350)
inactive: [1] -0.005 | [2] -0.169 | [3] -0.095 | [4] 0.033 | [5] 0.034

CBFB isoform 2 (UniProt Q13951)
inactive: [1] -0.023 | [2] 0.042 | [3] 0.025 | [4] 0.021 | [5] -0.026

CBR1 (UniProt P16152)
inactive: [1] -0.009 | [2] 0.015 | [3] 0.01 | [4] -0.028 | [5] -0.037

CCDC127 (UniProt Q96BQ5)
inactive: [1] 0.026 | [2] -0.012 | [3] -0.141 | [4] -0.056 | [5] -0.009

CCDC12 (UniProt Q8WUD4)
inactive: [1] -0.018 | [2] 0.022 | [3] -0.045 | [4] -0.002 | [5] 0.022

CCDC85B (UniProt Q15834)
inactive: [1] -0.05 | [2] -0.225 | [3] 0.108 | [4] 0.014 | [5] -0.407

CD2AP (UniProt Q9Y5K6)
inactive: [1] -0.001 | [2] 0.014 | [3] 0.044 | [4] 0.01 | [5] 0.014

CDC26 (UniProt Q8NHZ8)
inactive: [1] 0.05 | [2] 0.027 | [3] -0.346 | [4] -0.038 | [5] 0.022

4 successive records out of the list so far:
CBFB isoform 2 (UniProt Q13951)
inactive: [1] -0.023 | [2] 0.042 | [3] 0.025 | [4] 0.021 | [5] -0.026

CBR1 (UniProt P16152)
inactive: [1] -0.009 | [2] 0.015 | [3] 0.01 | [4] -0.028 | [5] -0.037

CCDC127 (UniProt Q96BQ5)
inactive: [1] 0.026 | [2] -0.012 | [3] -0.141 | [4] -0.056 | [5] -0.009

CCDC12 (UniProt Q8WUD4)
inactive: [1] -0.018 | [2] 0.022 | [3] -0.045 | [4] -0.002 | [5] 0.022

The listing continues.

CBX1 (UniProt P83916)
inactive: [1] 0.003 | [2] 0.026 | [3] 0.023 | [4] -0.003 | [5] 0.031

CCNK isoform 4 (UniProt O75909)
inactive: [1] 0.045 | [2] -0.115 | [3] 0.015 | [4] 0.103 | [5] 0.069

CCPG1 isoform 5 (UniProt Q9ULG6)
inactive: [1] 0.073 | [2] -0.11 | [3] -0.081 | [4] -0.024 | [5] -0.01

CASP10 isoform 4 (UniProt Q92851)
inactive: [1] 0.064 | [2] 0.189 | [3] 0.114 | [4] 0.002 | [5] -0.145

CCDC43 (UniProt Q96MW1)
inactive: [1] -0.006 | [2] 0.019 | [3] 0.018 | [4] -0.012 | [5] 0

CD53 (UniProt P19397)
inactive: [1] -0.05 | [2] 0.142 | [3] 0.106 | [4] 0.083 | [5] 0.014

CCNT1 (UniProt O60563)
inactive: [1] 0.108 | [2] -0.022 | [3] -0.036 | [4] 0.085 | [5] 0.072

CAVIN1 (UniProt Q6NZI2)
inactive: [1] 0.017 | [2] -0.127 | [3] -0.103 | [4] 0.101 | [5] 0

CBX8 (UniProt Q9HC52)
inactive: [2] -0.592 | [5] 0.197

CDADC1 (UniProt Q9BWV3)
inactive: [3] -0.047

CCDC186 (UniProt Q7Z3E2)
inactive: [1] -0.158 | [3] -0.073

CD2BP2 (UniProt O95400)
inactive: [1] 0.028 | [3] -0.212 | [4] 0.199

CCNE1 (UniProt P24864)
inactive: [1] 0.067 | [3] -0.049 | [4] -0.033

CD59 isoform 2 (UniProt P13987)
inactive: [1] 0.031 | [2] -0.017 | [3] 0.016 | [4] -0.035 | [5] 0.028

CD9 (UniProt P21926)
inactive: [2] 0.111 | [4] -0.126 | [5] 0.038

CAV2 (UniProt P51636)
inactive: [1] 0 | [4] -0.046

CD80 (UniProt P33681)
inactive: [2] 0.046 | [4] 0 | [5] 0.117

CD320 (UniProt Q9NPF0)
inactive: [1] 0.012 | [2] -0.008 | [3] -0.006 | [4] -0.017 | [5] -0.005

CD33 (UniProt P20138)
inactive: [3] 0.057 | [4] 0.046

CBLL1 (UniProt Q75N03)
inactive: [2] -0.062 | [3] 0.268 | [4] -0.044 | [5] 0.02

CCAR1 (UniProt Q8IX12)
inactive: [1] -0.129 | [2] 0.061 | [3] 0.043 | [4] 0.044 | [5] -0.043

CCT6B isoform 3 (UniProt Q92526)
inactive: [2] 0.433 | [3] 0.058 | [4] -0.026 | [5] 0.016

CD44 (UniProt P16070)
inactive: [2] -0.04 | [3] 0.046 | [4] -0.026 | [5] -0.009

CCDC102A (UniProt Q96A19)
inactive: [2] 0.059 | [3] -0.078 | [5] 0.078

CDC27 (UniProt G5EA36)
inactive: [2] -0.146 | [4] 0.021 | [5] -0.042

CDC25B isoform 4 (UniProt P30305)
inactive: [1] 0.107 | [2] 0.009 | [3] 0.101 | [5] -0.024

CCDC71L isoform 2 (UniProt Q8N9Z2)
inactive: [1] -0.211 | [2] -0.089 | [4] 0.238 | [5] 0.048

CD46 (UniProt P15529)
inactive: [1] 0.109 | [3] 0.026

CCNYL1 (UniProt Q8N7R7)
inactive: [1] 0.191 | [2] -0.047 | [5] -0.103

CCDC28B (UniProt Q9BUN5)
inactive: [1] -0.132 | [3] -0.009 | [4] 0.03

CD109 (UniProt Q6YHK3)
inactive: [3] -0.118

CDC37 (UniProt K7EL68)
inactive: [1] -0.075 | [2] 0.13 | [3] 0.056 | [5] -0.176

CASP8 isoform 9 (UniProt Q14790)
inactive: [1] -0.013 | [3] 0.052 | [4] 0.033

CCDC175 (UniProt P0C221)
inactive: [1] 0.217 | [2] 0.106 | [3] 0.069 | [5] -0.123

CDC25C (UniProt P30307)
inactive: [2] -0.354 | [4] 0.105 | [5] 0.144

CCDC167 (UniProt Q9P0B6)
inactive: [1] 0.153 | [2] -0.037 | [4] -0.124 | [5] 0.073

CCNC (UniProt P24863)
inactive: [1] -0.139 | [2] -0.172 | [3] 0.01 | [5] -0.037

CASP9 (UniProt P55211)
inactive: [2] -0.045 | [3] 0.102 | [4] 0.05 | [5] 0.12

CD69 (UniProt Q07108)
inactive: [1] -0.037 | [2] 0.052 | [3] -0.083 | [5] 0.02

CD164 (UniProt Q04900)
inactive: [1] 0.015 | [2] 0.033 | [3] -0.007 | [5] 0.169

CD37 (UniProt P11049)
inactive: [3] 0.123 | [4] 0.151

CCND2 (UniProt P30279)
inactive: [2] 0 | [5] -0.16

CCDC158 (UniProt Q5M9N0)
inactive: [1] 0.036 | [2] -0.095 | [3] -0.003 | [5] 0.056
